## Screening data, single-dose tests

Mtb cholesterol medium: 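Phenotypic screen: M. tuberculosis growth, cholesterol and DPPC medium, 4 days; the read-out is not stated. Compounds at 50 µM. Direction is inferred from retests: higher values go with more growth inhibition. Size under these conditions: about 69,000 compounds, about 370 of them at 50% or above in at least one test.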
Mtb glucose medium: 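Whole-cell growth test on Mycobacterium tuberculosis, read after 3 days in glucose-containing 7H9 medium; the read-out is not stated. Compounds at 50 µM. Direction is inferred from retests: higher values go with more growth inhibition. Of about 69,000 compounds tested this way, about 760 (1.1%) reached 50% or more in at least one test.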

Results are given as percent effect. The controls that fix the scale are not given in the record; negative values are as filed. Compounds were drawn at random from those tested, without regard to their results. Two or more numbers in one place are separate tests of the same structure; such repeats can differ widely.

SMILES | Mtb cholesterol medium | Mtb glucose medium
O=C(O)CCn1nc(C(F)(F)F)c(Cl)c1C1CC1 | -3.614 | -1.1
Cn1cccc1C1CCCCCN1C(=O)c1ccc(NC2CC2)nc1 (centres undefined) | 6.4 | -19.24
O=C(NC[C@H]1OC[C@@H](NC2CCC(F)(F)CC2)[C@@H]1O)C1CCCC1 | -6.196 | -9.531 & -3.044
Cc1nc(O)cc(CCNC(=O)c2ccccc2N2CCCC2)n1 | -18.26 | -20.03
CC(C)C(=O)N1Cc2ccccc2CC2(CCCN2C)C1 (centres undefined) | 2.5 | 21.09
O=C(NCc1nccn1CCc1ccccc1)NCC1(O)CCC1 | 13.1 | 15.45
Cc1oc(-c2ccc(F)cc2)nc1CN1CCOCS1(=O)=O | -3.445 | 20.65 & -2.611
CCC(=O)N(CCC(=O)O)Cc1ccc(F)c(F)c1 | 5.963 | 1.259
COc1ccc(CCN(C)C(=O)CN2C(=O)OC[C@@H]2C(C)C)cc1OC | 4.809 | 3.267
Cc1ccnc(C2CCCN2C(=O)c2cnccn2)n1 (centres undefined) | -13.01 | -9.43
CC(C)(C)c1cn(CC2CCCN(c3cnc4ccccc4n3)C2)nn1 (centres undefined) | -19.96 | 24.8
COc1ncccc1C(Cc1ccsc1)NC(=O)Cn1cccnc1=O (centres undefined) | -18.48 | 22.76
CC(C)NC(=O)C1CCN(c2nc3nc[nH]c(=O)c3s2)CC1 | -2.954 | -15.88
O=C1CC(c2ccc(C(=O)O)cc2)c2ncn(-c3ccccc3)c2N1 (centres undefined) | -20.5 | -12.74
[H][C@]12CN(C(=O)c3cnc(C)nc3)CC[C@@]1(O)CCN(C1CCCCC1)C2 | -2.792 & 14.78 | 11.73 & -3.879
Cc1nnc(SCC(=O)NCc2ccc3c(c2)CCC(=O)N3)n1C | -19.71 | 1.601
[H][C@]12CN(CC3CC3)C(=O)[C@@]1([H])CN(S(=O)(=O)c1cccs1)C2 | 12.94 | 1.603
O=C(O)C(F)(F)F.O=C(O)C(F)(F)F.O=C(O)c1cc2c(nc1-c1ccsc1)CCN(C1CCOC1)CC2 (centres undefined) | 12.7 | -4.09 & 7.569
Cn1nnc2c1CCN(C(=O)C1CC1)C2COCCN1CCCC1.O=C(O)C(F)(F)F (centres undefined) | -14.34 | -5.167 & -20.26
O=S(=O)(c1cncc(F)c1)N1CCSC2(CCCCC2)C1 | -1.658 | 0.4323 & 6.635
COc1ccc(S(=O)(=O)NC2(CC(N)=O)CCC2)cc1 | -18.3 | -12.01
c1ccc2c(N3CCSCC3)cnnc2c1 | 14.19 | 20.39
O=C(NCCN1CCOCC1)c1cc(Cl)c2c(c1)OCCCO2 | -9.952 | 11.93 & 1.548
O=C(O)C(F)(F)F.[H][C@@]12CCN(C3CCCC3)[C@]1([H])CC[C@H](C(=O)N1CCOCC1)O2 | -4.02 | 16.76
CN(C)CCn1c2c(ccc1=O)CC(NCc1cnn(C)c1)CC2.O=C(O)C(F)(F)F.O=C(O)C(F)(F)F (centres undefined) | -10.91 | -1.063
Cc1ccc(Br)cc1S(=O)(=O)NCCc1nnc[nH]1 | -15.69 & -10.85 | -18.44
CC1=Nc2c(c(=O)[nH]n2C(C)C)C(c2ccsc2)S1 (centres undefined) | 7.899 & -2.67 | 27.39 & 46.81
CNC(=O)c1cc2c(nc1N(C)C)CCN(c1ncc(C)cn1)CC2.O=C(O)C(F)(F)F | -35.04 | 8.186
Cc1cnc(C(=O)N2CCCC(Cn3cc(C4CC4)nn3)C2)cn1 (centres undefined) | 1.917 | 2.441
O=C(CC1CCCC1)N1CCC(c2nnc(-c3ccccn3)o2)CC1 | -29.24 & 8.435 | -49.97
CN1C(=O)C2(CCN(Cc3nccn3C)CC2)c2ccccc21.O=C(O)C(F)(F)F | 6.215 | 3.66
O=C(c1ccc[nH]1)N(Cc1ccc(O)cc1)CC1CC1 | 2.019 | 4.198 & -2.565
[H][C@]12CN(c3cc(C#N)ccn3)CC[C@@]1(O)CCN(S(=O)(=O)N(C)C)C2 | 16.54 | 0.4316 & -18.87
Cc1cc(NCCS(C)(=O)=O)n2nc(C)cc2n1 | -17.46 | -1.833
O=C(O)C(F)(F)F.[H][C@@]12CN(C)C[C@]1(C(=O)NCC1CC1)CCCN2c1ncccn1 | -21.72 | -10.09
[H][C@@]12CN(Cc3ccccn3)C[C@]1([H])OCCN2CC1CCCO1 (some centres undefined) | -20.09 | -2.048
N#Cc1cc(C#N)c(SCC(=O)NCc2ccc(F)cc2)nc1N | -4.494 | -22.92
CC(Cc1ccccn1)N(C)Cc1ccc2c(c1)CCO2 (centres undefined) | 3.078 | 5.079
CN1CCN(c2ccccc2NC(=O)NCC[S+](C)[O-])CC1 (centres undefined) | 10.75 | 24.62
CN(C)CCOCc1cncc2c1CCN(Cc1ccccn1)C2.O=C(O)C(F)(F)F.O=C(O)C(F)(F)F.O=C(O)C(F)(F)F | -4.158 & -6.063 | -7.516
CN(C)S(=O)(=O)N1CCC(c2ccncc2)CC1 | -24.35 | -19.32
CCN1CCC(CNC(=O)Nc2cnn(CC(N)=O)c2)C1 (centres undefined) | -22 | 7.94
Cc1ccc(S(=O)(=O)NC(=O)CCc2ccccc2)cc1N(C)C | 5.433 | -11.65 & -0.5613
COCCOC1CCN(C(C(=O)O)c2ccc(OC)c(F)c2)CC1 (centres undefined) | -0.4529 | -15.05 & -6.436
O=C(NCc1ccc2c(c1)OCCO2)N1CCC(CO)CC1 | -26.09 | -0.2631 & -7.013
O=C(C1CCCC1)N1CCCC1c1nnc2n1CCCCC2 (centres undefined) | -23.14 | -17.64
O=C(Oc1ccccc1)N1CCC(CNS(=O)(=O)c2cccnc2)CC1 | -10.34 | -64.1
CC(C)c1cc(N2CCC(N(C)C)C2)n2nccc2n1 (centres undefined) | 2.82 | 13.44
COc1cc(NC(=O)NC2CCCC2)ccc1N1CCOC1=O | -2.597 | 7.831
CCC(=O)N1CCCN(c2cncc(-n3nc(C)cc3C)n2)CC1 | 3.582 | -14.28 & -2.101
[H][C@@]12CN(CCO)C[C@]1([H])C(=O)N(Cc1ccc(OC)cc1)C2 | 3.984 | 3.475
[H][C@]12CC[C@]([H])(CN(S(=O)(=O)N(C)C)C1)N(C(=O)c1cc[nH]c1C)C2 | -10.02 | -22.23
Cc1cc(-c2ccc(=O)n(C3CCN(S(C)(=O)=O)CC3)n2)c(C)o1 | 0.5797 | -7.216
Cc1csc(CNC(=O)NC2CCN(c3ncccn3)CC2)n1 | -15.73 | 3.474
Cc1cc(N(C)C)nc(NC2CCc3nc(C)nn3C2)n1 (centres undefined) | -13.56 | -0.6806

Source: ChEMBL document CHEMBL3988442, “University of Dundee, Small-Polar-MMV Screening Library” (2021).